Measured values reported in PubChem BioAssay AID2685 (National Center for Advancing Translational Sciences (NCATS), 2010).
The other results are listed elsewhere or left out. The main result of the screen is listed elsewhere. These columns were measured beside it and carry no call. The list favours compounds with an active or inconclusive main result. The note in brackets gives the kind of curve behind each potency; many fits are weak.

Assay: qHTS Assay for Lipid Storage Modulators in Drosophila S3 Cells;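 for cell number change: cells counted by Cell Tracker Red CMTPX staining in the red channel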
Settings: BODIPY lipid droplet fluorescence, 18-24 h; for cell number change: measured here: cell count max response, cells fed with added oleic acid
Outline: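 Drosophila S3 cells loaded with oleic acid (400 uM, as added) and compounds at several concentrations; lipid droplets imaged by 488-nm laser-scanning cytometry, 500–530 nm intensity and object ratio to cell channel. Percent activity normalized to 20 uM Triacsin C.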

[1] = measured here: lipid fluorescence (Fed channel) AC50, cells fed with added oleic acid
[2] = measured here: cell number channel AC50, cells fed with added oleic acid

SMILES	cell number change	AC50 [1]	AC50 [2]
O=C(C(c1ccccc1)c1ccccc1)N1CCN(Cc2ccncc2)CC1	-20.1%		
Cc1cc(C)n2ncnc2n1	14.1%	5.17 µM [rising, single point]	
CN(Cc1ccon1)C(=O)CC1C(=O)NCCN1Cc1cccc(F)c1F (stereo unspecified)	-0.587%		
O=C1CC(C(=O)O)S/C(=N\NC(=O)c2ccccc2)N1 (stereo unspecified)	-97.3%	23.1 µM [falling, partial curve]	25.9 µM [falling, partial curve]
COC(=O)c1c(C(=O)OC)c(C)n(Cc2cccnc2)c1C	11.4%		
COC(=O)c1cc(CSc2nc3ccccc3[nH]2)oc1C	9.66%	1.84 µM [rising, partial curve]	0.651 µM [rising, full curve, poor fit]
COc1cc2ccccc2cc1C(=O)Nc1sc2c(c1C(N)=O)CCN(C(C)C)C2	-44.8%	20.6 µM [falling, partial curve]	13 µM [falling, single point]
CCOc1ccc(NC(=O)NCc2ccccn2)cc1	-16.3%	29.1 µM [rising, single point]	
O=C1c2cccc(OCC(=O)N3CCCc4ccccc43)c2CCN1Cc1ccc(F)cc1	18.3%	2.06 µM [rising, single point]	
CCC(c1nnc(SCC(=O)Nc2cc(S(C)(=O)=O)ccc2Cl)n1Cc1ccccc1)N(C)C (stereo unspecified)	25.6%	1 µM [rising, partial curve]	
COc1cccc(NC(=O)CN(C)C(=O)CCc2nc3sc4c(c3c(=O)[nH]2)CCCC4)c1	-19.1%	18.4 µM [falling, single point]	
Cc1cc(C)cc(NC(=O)CN2CCN(c3ccccn3)CC2)c1		18.4 µM [falling, single point]	
CCN(C(=O)CN1CCC(C)CC1)c1c(N)n(Cc2ccccc2)c(=O)[nH]c1=O	64.3%	32.6 µM [rising, single point]	32.6 µM [rising, single point]
CCCn1c(SCC(=O)Nc2ccccc2C(=O)OC)nc2c1c(=O)n(C)c(=O)n2C		1.84 µM [rising, partial curve]	2.31 µM [rising, partial curve]
CCOC(=O)/C=C/C(=O)OCC(=O)Nc1ccc(Cl)cn1	6.72%		
N#Cc1cc(C(=O)c2cc(Br)ccc2O)cn(C2CC2)c1=O	-37%		29.1 µM [falling, single point]
CCN(CC)C(=O)CN(c1cc(Cl)ccc1OC)S(=O)(=O)c1ccc(C)c([N+](=O)[O-])c1	-0.663%		
CC(C(=O)OCC(=O)c1cccc([N+](=O)[O-])c1)N1C(=O)C2C3C=CC(C3)C2C1=O (stereo unspecified)	5.13%	1.84 µM [rising, full curve]	
CCN(CC1COc2ccccc2O1)C(=O)CN1C(=O)NC(C)(c2ccccc2)C1=O (stereo unspecified)	-3.89%		
Cc1cc(C(F)F)n2nc(C(=O)Nc3ccc(S(=O)(=O)N4CCCC4)cc3)nc2n1	-0.583%	1.64 µM [rising, partial curve, poor fit]	
COc1ccc(NC(=O)c2cc(CC(C)C)nc3ccccc23)cc1	-0.275%	29.1 µM [rising, single point]	0.146 µM [falling, full curve, poor fit]
CCCc1ccc2oc(C(=O)N3CCC(N4CCCC(O)C4)CC3)c(C)c2c1 (stereo unspecified)	52.5%	32.6 µM [rising, single point]	20.6 µM [rising, partial curve]
CCN(CC)CCNC(=O)c1cc2c(s1)-c1ccccc1SC2	41.5%	16.4 µM [rising, single point]	14.6 µM [rising, partial curve, poor fit]
CCCN1CCN(c2nc3c([nH]2)c(=N)ncn3CC(O)CO)CC1 (stereo unspecified)	-22.7%	0.259 µM [falling, full curve]	0.291 µM [falling, full curve, poor fit]
COc1cccc(-n2nc(C(C)=O)c(=O)[nH]c2=O)c1	-121%		20.6 µM [falling, single point]
CC1CC(C)CN(CC(O)COCc2ccccc2)C1 (stereo unspecified)	15.5%	0.291 µM [rising, full curve, poor fit]	
O=C(C(c1ccccc1)c1ccccc1)N1CCN(CC(O)COc2ccccc2)CC1 (stereo unspecified)		3.66 µM [falling, full curve]	
CCOc1ccccc1NC(=O)NNC(=O)COc1cccc(C)c1C	8.19%	5.17 µM [rising, single point]	

Taken from above:
`COC(=O)c1cc(CSc2nc3ccccc3[nH]2)oc1C` | AC50 [1]: 1.84 µM [rising, partial curve]
`CCC(c1nnc(SCC(=O)Nc2cc(S(C)(=O)=O)ccc2Cl)n1Cc1ccccc1)N(C)C` (stereo unspecified) | cell number change: 25.6%
